Results are given in words; binding and its absence hold for the method and conditions named. In cells and extracts the contact can be indirect. Some results given as binding are weak or reduced against the parent protein; the word gives no strength.
Columns and labels:
[1] = target: YAP1 (human (endogenous in HT-29 and Caco-2)) (UniProt P46937); assay: co-IP; lysates of HT-29 and Caco-2 cells immunoprecipitated with anti-KLF5 (Santa Cruz sc-22797) or anti-YAP1 (Cell Signaling 14074) antibody, BeaverBeads Protein A/G Immunoprecipitation Kit, SDS/PAGE and Western blotting
[2] = target: Krüppel-like factor 5 (KLF5) (human (endogenous in HT-29 and Caco-2)) (UniProt Q13887); assay: as above

The chains behind the UniProt entries cited, without tags or fusion partners.
UniProt P46937: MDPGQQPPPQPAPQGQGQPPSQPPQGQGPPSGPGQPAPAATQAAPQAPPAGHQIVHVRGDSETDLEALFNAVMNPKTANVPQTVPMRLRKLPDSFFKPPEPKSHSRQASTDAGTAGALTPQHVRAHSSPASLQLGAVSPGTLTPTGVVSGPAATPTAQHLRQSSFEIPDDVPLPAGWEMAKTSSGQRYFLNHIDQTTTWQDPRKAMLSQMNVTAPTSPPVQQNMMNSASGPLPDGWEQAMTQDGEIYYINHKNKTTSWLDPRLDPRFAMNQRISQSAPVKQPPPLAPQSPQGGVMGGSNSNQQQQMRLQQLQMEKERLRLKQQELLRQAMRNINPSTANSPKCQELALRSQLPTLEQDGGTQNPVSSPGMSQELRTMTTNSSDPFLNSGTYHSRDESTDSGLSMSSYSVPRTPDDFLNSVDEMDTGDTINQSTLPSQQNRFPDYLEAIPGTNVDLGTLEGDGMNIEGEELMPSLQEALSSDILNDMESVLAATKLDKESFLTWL
UniProt Q13887: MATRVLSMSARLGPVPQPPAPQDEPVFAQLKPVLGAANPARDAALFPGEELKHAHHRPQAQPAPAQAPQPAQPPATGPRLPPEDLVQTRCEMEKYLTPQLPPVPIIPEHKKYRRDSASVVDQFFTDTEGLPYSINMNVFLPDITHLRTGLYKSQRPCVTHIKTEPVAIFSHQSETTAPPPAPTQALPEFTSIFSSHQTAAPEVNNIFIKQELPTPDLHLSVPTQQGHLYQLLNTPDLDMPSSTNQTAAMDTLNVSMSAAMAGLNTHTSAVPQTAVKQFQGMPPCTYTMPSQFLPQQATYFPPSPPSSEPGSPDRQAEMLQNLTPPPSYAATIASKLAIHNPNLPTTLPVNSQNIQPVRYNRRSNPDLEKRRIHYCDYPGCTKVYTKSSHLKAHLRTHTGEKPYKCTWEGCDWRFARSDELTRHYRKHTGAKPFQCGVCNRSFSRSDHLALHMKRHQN

binding [1] | binding [2] | Substance
binds | – | Krüppel-like factor 5 (KLF5) (from UniProt Q13887 1-457)
– | binds | YAP1 (from UniProt P46937 1-504)

Source: publication PMC5752522
